PubChem BioAssay AID652243 – Drosophila RNAi Screening Center, 2013
Screen: 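Knock-downs that decrease or increase androgen receptor reporter signal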 (primary screen). Cell system: Drosophila S2R+ cells. Reagent: long dsRNA against Drosophila genes. Timing: 72 h (48 h, then 24 h hormone). Treatment: synthetic androgen R1881 at 10 nM for 24 h. Measured: 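Firefly light from an androgen-responsive reporter and Renilla control light per well, raw and unnormalised, for each of two replicates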. Scale: firefly reporter light: higher = more light from androgen-responsive reporter; Renilla control light: higher = more constitutive control signal (cell number, transfection). Active means: 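Across duplicate plates, a knock-down whose log firefly/Renilla ratio shifted a set fold down or up from the GFP/LacZ control mean was a hit; the downward cut appears as both 1.5 and 3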. Calls: active = hit: reporter lowered or raised; inactive = no hit.
The screen tested about 24,000 reagents; shown is a random part of those that have a named target and a result. Of all reagents, 246 (1%) are marked active. 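Plates not normalised; calls are printed but the firefly/Renilla ratio behind them is not deposited; fold cut for lowering reported inconsistently.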 Raw values vary from plate to plate and are shown uncorrected. The numbers tell different reagents against one gene apart. Not stated in the record: the amount of reagent.

predicted target	reagent	firefly reporter light, replicate 1	firefly reporter light, replicate 2	Renilla control light, replicate 1	Renilla control light, replicate 2	Outcome
CG1136	1	1.19e6	1.31e6	2.18e6	2.00e6	inactive
Muc55B (Mucin 55B)	1	1.03e6	9.04e5	2.43e6	2.25e6	inactive
Muc55B (Mucin 55B)	2	5.23e5	3.57e5	2.03e6	1.23e6	inactive
Lgr4 (Leucine-rich repeat-containing G protein-coupled receptor 4)	1	9.70e5	6.84e5	2.28e6	1.08e6	inactive
Lgr4 (Leucine-rich repeat-containing G protein-coupled receptor 4)	2	6.06e5	5.54e5	4.05e6	4.26e6	inactive
Lgr4 (Leucine-rich repeat-containing G protein-coupled receptor 4)	3	8.21e5	8.60e5	1.35e6	1.29e6	inactive
SMC5 (Structural maintenance of chromosomes 5)	1	72577	66985	4.68e5	4.87e5	inactive
ppk5 (pickpocket 5)	1	1.21e5	1.06e5	3.66e5	3.32e5	inactive
CG32695	1	3.65e5	4.19e5	3.03e6	2.60e6	inactive
CG42729	1	2.21e5	2.27e5	1.48e6	1.99e6	inactive
CG10654	1	2.72e5	92288	2.66e6	9.75e5	inactive
CG7362	1	9.93e5	1.18e6	2.22e6	1.92e6	inactive
CG7362	2	3.08e5	6.51e5	6.40e5	6.40e5	inactive
CG7362	3					inactive
CG15141	1	5.52e5	8.46e5	1.83e6	2.19e6	inactive
CG15141	2	1.66e5	1.75e5	2.35e6	3.14e6	inactive
CG15141	3	9.14e5	8.43e5	2.23e6	1.76e6	inactive
Su(z)3 (retired record)	1	7.33e5	1.05e6	1.77e6	1.87e6	inactive
CG32333	1	9.84e5	9.34e5	1.33e6	1.26e6	inactive
CG32333	2	40185	62863	5.14e5	7.88e5	inactive
Tango6 (Transport and Golgi organization 6)	1	3.50e5	4.63e5	1.13e6	1.17e6	inactive
Tango6 (Transport and Golgi organization 6)	2	2.80e5	3.93e5	6.77e5	6.77e5	inactive
CG14641	1	63019	48577	6.54e5	3.91e5	inactive
CG14641	2	7.67e5	5.09e5	8.61e5	4.35e5	inactive

As entered above:
For “firefly reporter light, replicate 1”, CG42729 shows 2.21e5
Under “firefly reporter light, replicate 1”, CG7362 #2 has 3.08e5
